42 sequences from article PMC7819943, “Rice protein-binding microarrays: a tool to detect cis-acting elements near promoter regions in rice” can be followed below.

The chains behind the UniProt entries cited, without tags or fusion partners.
UniProt Q0JBA9, entry or part of it: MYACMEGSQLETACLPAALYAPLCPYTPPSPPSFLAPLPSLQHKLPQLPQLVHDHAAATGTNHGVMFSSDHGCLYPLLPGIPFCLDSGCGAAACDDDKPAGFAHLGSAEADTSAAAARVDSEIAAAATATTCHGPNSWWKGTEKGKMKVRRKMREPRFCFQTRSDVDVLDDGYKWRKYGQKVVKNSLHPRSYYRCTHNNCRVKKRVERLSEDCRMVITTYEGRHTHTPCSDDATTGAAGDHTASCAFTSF

The list shows a part of the results.

The target of the experiment is OsWRKY34 (Oryza sativa, UniProt Q0JBA9 1-250). The experiment can be described thus: protein-binding microarray (RPBM); PBS, 2% BSA, 51.3 ng/ul salmon testes DNA, 50 uM zinc acetate, 200 nM TF, 25 C, 1 h; high values mean tight binding. The note with it: protein: recombinant; tags: N-terminal polyhistidine and DsRed monomer fusion (pET32a); label: CyDye5-dUTP incorporated in the synthesized complementary strand; 3' TTTTT single-stranded linker to array surface; dsDNA, one strand shown. In short, it runs like this: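 Transcription factors, each fused N-terminally to a polyhistidine tag and DsRed, were expressed in E. coli BL21-CodonPlus and purified on Ni–NTA. A custom Agilent array was made double-stranded by primer extension with Cy5-dUTP and blocked with 2% BSA. It was incubated with 200 nM protein in PBS, 2% BSA, salmon testes DNA and 50 µM zinc acetate at 25 °C for 1 h, then washed. The binding signal is per-feature fluorescence intensity (arbitrary units) read on an Axon 4000B scanner.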
With “CGAGCGATAACCATCTAGCACTCTTTCTTTCTTTCTTGCCCGGAGTCACCTAGTGCAG”, the binding signal was 10100 fluorescence intensity (a.u.). For “GGTGATAGGGGATTTGGGTTTTCAGGTCATGCAAGACGTGCGGAGTCACCTAGTGCAG”, the binding signal is 10100 fluorescence intensity (a.u.). With “TTACTTTGTGACCATCCGCGACGTCACGCTCACATCATTTCGGAGTCACCTAGTGCAG” the figure was 9830 fluorescence intensity (a.u.); with “TGATGCTATAGGCTGATCTTTGGGGTTACGGCTACGTCGACGGAGTCACCTAGTGCAG”, 8880 fluorescence intensity (a.u.); with “TAGCTTCGCTTTCCTTCTTTCTCTCTTGTCTAGCTATCTTCGGAGTCACCTAGTGCAG”, 8220 fluorescence intensity (a.u.). For “CCTCTGTCGCGTTGCTGCTGGCGGAGCTCCTTGGCTTCTCCGGAGTCACCTAGTGCAG”, the binding signal is 14100 fluorescence intensity (a.u.). Turning to “TGGGGCGCGTGGGGTGGCGATCCGTGGGGAGGCCGTTTCGCGGAGTCACCTAGTGCAG”, the binding signal was 12200 fluorescence intensity (a.u.). For the sequence “TCTTCTCTTGGCTCTGTCATGTCTTGCTGTCGGTAGGGGTCGGAGTCACCTAGTGCAG”, the binding signal was 8460 fluorescence intensity (a.u.). With “CATCACAAGCATATATCATATTTTATTTTCATTCCAACCTCGGAGTCACCTAGTGCAG”, the binding signal is 9230 fluorescence intensity (a.u.). With “AATTCGCTCATTCGCTGTGCCCTCGAGAAAATATAATAATCGGAGTCACCTAGTGCAG” the figure was 8230 fluorescence intensity (a.u.).

“ACCTCCTCGCGTTCGCTCGCTACAGCGCACCACATCCACACGGAGTCACCTAGTGCAG”: the binding signal was 8790 fluorescence intensity (a.u.). “TGTGCCAGAGTCATTTAGCAACTCTAATTTCCTAACGTTTCGGAGTCACCTAGTGCAG”: the binding signal was 8400 fluorescence intensity (a.u.). The value for “AGTTGATTTTGTACTCCTAAAATTTACAGTCATTCTTTACCGGAGTCACCTAGTGCAG” was 8130 fluorescence intensity (a.u.); that for “ATTCGAGTTTCTTAATATGTTTTTTTTCTTTCTTCAGTTTCGGAGTCACCTAGTGCAG” was 8850 fluorescence intensity (a.u.). With “ACCCTCACTATAGTTTCCATGCTTTCTTCATGGTTTGTTTCGGAGTCACCTAGTGCAG” the figure was 8690 fluorescence intensity (a.u.); with “CGCGCGCTCTCCCATCCATCCATCATCCAAGTCAACAAGACGGAGTCACCTAGTGCAG”, 9150 fluorescence intensity (a.u.). With “CCACTTGCTTTGCTGCTACAGTACTTCCTACTGTTACATACGGAGTCACCTAGTGCAG” the figure was 9660 fluorescence intensity (a.u.); with “GGGTTGGTGTAGTGGCAGGGGAGTGACGGTGCGCGGTCCGCGGAGTCACCTAGTGCAG”, 11000 fluorescence intensity (a.u.). Take “ATGGTCTCACATCTCATACACACATAACGTATTGAAGTTCCGGAGTCACCTAGTGCAG”: the binding signal was 9010 fluorescence intensity (a.u.). In the case of “GTGGCATGAGCACCTACGATCAGTTCTTATCGTTATATTACGGAGTCACCTAGTGCAG”, the binding signal is 8180 fluorescence intensity (a.u.). With “CTATAGTAAGCTACTGAGTTTCCGTGCCTAACTTTGATCACGGAGTCACCTAGTGCAG” the figure was 10100 fluorescence intensity (a.u.). With “TTATTTTCATTTCCACCCTTGCATCATTATTTAGTATTTTCGGAGTCACCTAGTGCAG” the figure was 9050 fluorescence intensity (a.u.); with “TTTTGCCTCAGTCCAAACCGCTCCGGTCCGTTAGCTCACTCGGAGTCACCTAGTGCAG”, 8290 fluorescence intensity (a.u.). The value for “TCATTTTCAGTCTGTTTGCACTAATTTTGCTATTTTTATACGGAGTCACCTAGTGCAG” was 10800 fluorescence intensity (a.u.). For “CTGGTTTTTGGGGCCGGATTGTGATGAAAGATTGGGATTCCGGAGTCACCTAGTGCAG”, the binding signal was 8200 fluorescence intensity (a.u.). In the case of “ATTTATATATTAATAGCTCTCTCATTCTGCGTGCCCTTACCGGAGTCACCTAGTGCAG”, the binding signal was 11000 fluorescence intensity (a.u.). With “AGTTTAAGATTAATTTTTAGTGGATTTTTTCGGCGCTCTTCGGAGTCACCTAGTGCAG” the figure was 8220 fluorescence intensity (a.u.); with “CACGCACCCTCTTTCCCGTGCTTCGTGTGCCCTTCGATCGCGGAGTCACCTAGTGCAG”, 9430 fluorescence intensity (a.u.); with “GTTTATATCTCGCGGTATAGTTTGTGCGACTCTACTAATTCGGAGTCACCTAGTGCAG”, 10500 fluorescence intensity (a.u.). With “TGCAGTAACTTTGCAGCAGTCGTTTCACCAGTTACATTCTCGGAGTCACCTAGTGCAG”, the binding signal was 8180 fluorescence intensity (a.u.). With “GCTTTTACCGTTTCATGTCACACTTGTGTAGCTGTATTTTCGGAGTCACCTAGTGCAG”, the binding signal was 10200 fluorescence intensity (a.u.). Turning to “TCACCACATCCTCCTCCCATCGATGGCCCAAAATGCTATTCGGAGTCACCTAGTGCAG”, the binding signal is 8240 fluorescence intensity (a.u.).

As to “CTGCTTCGGGTTTTTTTTTGCTCTTGCTCCGATCGACTGCCGGAGTCACCTAGTGCAG”, the binding signal was 9710 fluorescence intensity (a.u.). As to “CACCCACCCACGCACACCGAGACAACCGAACACGTCGAGCCGGAGTCACCTAGTGCAG”, the binding signal is 9430 fluorescence intensity (a.u.). The value for “TTGGTTTTTTTCCGGTCTGACCGCCGGTCTCCTCTTTCCCCGGAGTCACCTAGTGCAG” was 9860 fluorescence intensity (a.u.); that for “CAACATTTTCCTGTGCTTTGACCAAATTATCCTGTTTATTCGGAGTCACCTAGTGCAG” was 14900 fluorescence intensity (a.u.). The value for “TAAACTCGTTGGACCACTCGACTGTAATTTGTTGTTTTGTCGGAGTCACCTAGTGCAG” was 8740 fluorescence intensity (a.u.); that for “TTCTTCCATGCTATTATGACACAAAAGCACCCGTTCTTTTCGGAGTCACCTAGTGCAG” was 8920 fluorescence intensity (a.u.); that for “ATCTGTTACACTGTGGTACCATATCACCTGCAGCAATCAACGGAGTCACCTAGTGCAG” was 9680 fluorescence intensity (a.u.). With “GGGATAGTACTTATTACTCCCTCCGTCTCGAGTTTTTTTTCGGAGTCACCTAGTGCAG” the figure was 8360 fluorescence intensity (a.u.); with “ATGCTCTATCCGTCCTGGGCCACTTTGCATTTGGAAACTACGGAGTCACCTAGTGCAG”, 11900 fluorescence intensity (a.u.). For the sequence “CAAACAGAGCACACCTTTTTCCAGGACATTTGTCAATATTCGGAGTCACCTAGTGCAG”, the binding signal is 9180 fluorescence intensity (a.u.).
